The data set is described as follows: Copper corrosion in water (weight loss of copper strip). Conditions: 0,05 Gewichts% compound in 75 ml hard water (DIN 51360), copper strip 24 h at 60°C; single determination. Here is the method:
0,05 Gewichts% der zu testenden Verbindung werden in 75 ml hartem Wasser (DIN 51360) gelöst. Ein mit Siliciumcarbid poliertes und gewogenes Kupferblech (50 x 20 x 0,2 mm) wird vollständig in die Lösung getaucht und gut verschlossen 24 Stunden bei 60°C gelagert. Dann wird das Blech entnommen, 15 sec in 5 N Salzsäurelösung getaucht und mit deionisertem Wasser und Aceton gespült. Nach dem Trocknen wird das Kupferblech wieder gewogen.
Der Gewichtsverlust dient der Beurteilung des Korrosionsschutzes. Hoher Gewichtsverlust bedeutet starke Korrosion, geringer Gewichtsverlust guten Korrosionschutz.

Molecules are shown by their SMILES.

For `CC(Nc1nc(NC(C)n2cncn2)nc(NC(C)n2cncn2)n1)n1cncn1` (centres unmarked) [Beispiel 19], the Gewichtsverlust is reported as 1,4 mg.

`O=C(O)C(Nc1nc(NC(C(=O)O)n2cncn2)nc(NC(C(=O)O)n2cncn2)n1)n1cncn1` (centres unmarked) [Beispiel 25]: the Gewichtsverlust is given as 1,0 mg.
